Data reported in publication PMC4877669.
These are yes or no findings as the source states them, for the method shown. Binding seen in cells or lysates may run through a third protein. A yes stands for co-enrichment or nearness to the bait. Other partners may have been found.

Chains of the proteins cited; added tags and fusions are not shown.
UniProt P28652: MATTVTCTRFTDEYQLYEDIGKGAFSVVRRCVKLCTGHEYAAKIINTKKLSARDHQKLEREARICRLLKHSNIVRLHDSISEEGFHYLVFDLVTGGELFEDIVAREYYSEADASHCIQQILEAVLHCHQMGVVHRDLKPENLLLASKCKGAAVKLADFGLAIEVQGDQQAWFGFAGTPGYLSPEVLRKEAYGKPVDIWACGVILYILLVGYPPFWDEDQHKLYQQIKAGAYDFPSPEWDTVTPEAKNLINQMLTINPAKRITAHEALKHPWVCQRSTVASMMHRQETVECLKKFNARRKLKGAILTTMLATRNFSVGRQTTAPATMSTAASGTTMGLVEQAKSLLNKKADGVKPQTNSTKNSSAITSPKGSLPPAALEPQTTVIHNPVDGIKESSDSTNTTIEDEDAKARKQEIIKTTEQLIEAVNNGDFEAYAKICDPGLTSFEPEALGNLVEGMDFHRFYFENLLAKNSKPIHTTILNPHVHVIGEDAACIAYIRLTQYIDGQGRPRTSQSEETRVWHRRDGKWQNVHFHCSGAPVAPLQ

Molecular target: T1, activity-regulated cytoskeleton-associated (Arc) protein, endogenous (mouse (endogenous in hippocampus)) (UniProt Q9WV31)
T1 sequence: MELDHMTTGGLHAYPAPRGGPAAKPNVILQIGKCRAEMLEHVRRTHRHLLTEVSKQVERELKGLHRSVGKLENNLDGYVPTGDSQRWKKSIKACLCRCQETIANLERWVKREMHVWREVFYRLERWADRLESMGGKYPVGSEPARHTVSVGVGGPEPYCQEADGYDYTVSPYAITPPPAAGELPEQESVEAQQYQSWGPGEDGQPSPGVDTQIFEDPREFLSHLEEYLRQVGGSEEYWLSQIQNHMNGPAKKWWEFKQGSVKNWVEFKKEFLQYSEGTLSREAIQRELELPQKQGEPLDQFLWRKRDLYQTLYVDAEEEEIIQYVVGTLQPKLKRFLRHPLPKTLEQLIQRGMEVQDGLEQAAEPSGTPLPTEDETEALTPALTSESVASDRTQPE
Test: affinity purification with mass spectrometry; endogenous Arc immunoprecipitated from mouse hippocampal lysate with rabbit polyclonal anti-Arc antibody and protein G agarose beads, 3 h at 4°C; control: beads without antibody; in-gel tryptic digestion, LTQ-Orbitrap Velos; repeated twice

CamKII β subunit, endogenous (from UniProt P28652 1-542)
binding: binds

B1: dynamin 1, endogenous (protein, UniProt P39053-6 1-864)
chain: MGNRGMEDLIPLVNRLQDAFSAIGQNADLDLPQIAVVGGQSAGKSSVLENFVGRDFLPRGSGIVTRRPLVLQLVNSTTEYAEFLHCKGKKFTDFEEVRLEIEAETDRVTGTNKGISPVPINLRVYSPHVLNLTLVDLPGMTKVPVGDQPPDIEFQIRDMLMQFVTKENCLILAVSPANSDLANSDALKIAKEVDPQGQRTIGVITKLDLMDEGTDARDVLENKLLPLRRGYIGVVNRSQKDIDGKKDITAALAAERKFFLSHPSYRHLADRMGTPYLQKVLNQQLTNHIRDTLPGLRNKLQSQLLSIEKEVDEYKNFRPDDPARKTKALLQMVQQFAVDFEKRIEGSGDQIDTYELSGGARINRIFHERFPFELVKMEFDEKELRREISYAIKNIHGIRTGLFTPDMAFETIVKKQVKKIREPCLKCVDMVISELISTVRQCTKKLQQYPRLREEMERIVTTHIREREGRTKEQVMLLIDIELAYMNTNHEDFIGFANAQQRSNQMNKKKTSGNQVIRKGWLTINNIGIMKGGSKEYWFVLTAENLSWYKDDEEKEKKYMLSVDNLKLRDVEKGFMSSKHIFALFNTEQRNVYKDYRQLELACETQEEVDSWKASFLRAGVYPERVGDKEKASETEENGSDSFMHSMDPQLERQVETIRNLVDSYMAIVNKTVRDLMPKTIMHLMINNTKEFIFSELLANLYSCGDQNTLMEESAEQAQRRDEMLRMYHALKEALSIIGDINTTTVSTPMPPPVDDSWLQVQSVPAGRRSPTSSPTPQRRAPAVPPARPGSRGPAPGPPPAGSALGGAPPVPSRPGASPDPFGPPPQVPSRPNRAPPGVPSRKGPASPTRPAAPRPTEAPLLDL
binding: binds
